Assay results reported in patent US20240350655A1 (FORSCHUNGSVERBUND BERLIN E.V., priority 2021, published 2024).

Legend:
non-reduced Trastuzumab = test: Control reaction with non-reduced antibody, SDS-PAGE and intact-protein MS; conditions: for modification of non-reduced antibody: antibody not reduced prior to the reaction
HEK293-cell lysate = test: Proteome-wide cysteine profiling, LC-MS/MS
[1] = general procedure: Fmoc solid-phase peptide synthesis; Rink amide resin, loading 0.78 mmol/g; HCTU/Oxyma/DIPEA; conditions: conjugation step
[2] = 1 mg/ml lysate, three independent replicates, MS Amanda search

Compound	modification of non-reduced antibody (non-reduced Trastuzumab)	conjugation yield [1] [%]	other results
C#CP(=O)(OCC)c1cn(CCC(=O)NCCNc2cccc3c(S(=O)(=O)O)cccc23)nn1 (stereo not drawn) [CS266, EDANS-1,2,3-triazol-ethyl-ethynylphosphinate]	no modification could be observed		labelling of non-reduced antibody with 100 eq. (non-reduced Trastuzumab; 100 eq., 16 h, without reducing agent, intact-protein MS): No labelling
C#CP(=O)(OCC)c1cn(CCCNC(=O)CCCCCC2NC(=O)NC2C)nn1 (stereo not drawn) [CS418, Desthiobiotin-1,2,3-triazol-ethyl-ethynylphosphinate]			unique cysteine sites at lower proteomic input (HEK293-cell lysate; 0.1 mg/ml lysate, 50 μg total): 7023; proteins with labeled cysteine sites (HEK293-cell lysate; [2]): 3978; unique labeled cysteine sites (HEK293-cell lysate; [2]): 8661
(PEG4-Val-Cit-PAB-MMAE)-triazolyl diethynyl phosphinoxide		16	
(PEG4-Val-Cit-PAB-MMAE)-triazolyl-mPEG4-ethynyl phosphinate		59	
C#CP(=O)(/C=C/SCCC(=O)NCCNc1cccc2c(S(=O)(=O)O)cccc12)OCC (stereo not drawn) [CS265, EDANS-ethyl-thiovinyl-ethynylphosphinate]	no modification could be observed		
C#CP(=O)(C#C)OCC [compound 1, ethyl diethynyl phosphinate]	no rebridging or modification could be observed		
